Assay results reported in publication PMC3648344 (BMC Structural Biology, 2013).
These are yes or no findings as the source states them, for the method shown.

Target: MnmC from Escherichia coli (E. coli) (UniProt P77182)
Assay: SEC; both purified

B1: MnmC from Escherichia coli (enzyme, UniProt P77182 1-668)
chain: MKHYSIQPANLEFNAEGTPVSRDFDDVYFSNDNGLEETRYVFLGGNQLEVRFPEHPHPLFVVAESGFGTGLNFLTLWQAFDQFREAHPQAQLQRLHFISFEKFPLTRADLALAHQHWPELAPWAEQLQAQWPMPLPGCHRLLLDEGRVTLDLWFGDINELTSQLDDSLNQKVDAWFLDGFAPAKNPDMWTQNLFNAMARLARPGGTLATFTSAGFVRRGLQDAGFTMQKRKGFGRKREMLCGVMEQTLPLPCSAPWFNRTGSSKREAAIIGGGIASALLSLALLRRGWQVTLYCADEAPALGASGNRQGALYPLLSKHDEALNRFFSNAFTFARRFYDQLPVKFDHDWCGVTQLGWDEKSQHKIAQMLSMDLPAELAVAVEANAVEQITGVATNCSGITYPQGGWLCPAELTRNVLELAQQQGLQIYYQYQLQNLSRKDDCWLLNFAGDQQATHSVVVLANGHQISRFSQTSTLPVYSVAGQVSHIPTTPELAELKQVLCYDGYLTPQNPANQHHCIGASYHRGSEDTAYSEDDQQQNRQRLIDCFPQAQWAKEVDVSDKEARCGVRCATRDHLPMVGNVPDYEATLVEYASLAEQKDEAVSAPVFDDLFMFAALGSRGLCSAPLCAEILAAQMSDEPIPMDASTLAALNPNRLWVRKLLKGKAVKAG
B1 was tested, and the binding was “no binding (tested: approximately 1 mg applied)”.
